Data reported in publication PMC11909135, “Raptin, a sleep-induced hypothalamic hormone, suppresses appetite and obesity” (Cell Research, 2025).
Results are given in words; binding and its absence hold for the method and conditions named. For some of these results: In cells and extracts the contact can be indirect. Some results given as binding are weak or reduced against the parent protein; the word gives no strength. Where a sequence is shown, tags or fusion partners need not be part of it.

Chains of the proteins cited; added tags and fusions are not shown. Lines headed by an entry give the natural chain unless they say otherwise; changes in a name come on top. A line that says so, or that is headed by a name, gives the form on record, which may keep a tag or linker. Residues count along the entry.
UniProt Q14832: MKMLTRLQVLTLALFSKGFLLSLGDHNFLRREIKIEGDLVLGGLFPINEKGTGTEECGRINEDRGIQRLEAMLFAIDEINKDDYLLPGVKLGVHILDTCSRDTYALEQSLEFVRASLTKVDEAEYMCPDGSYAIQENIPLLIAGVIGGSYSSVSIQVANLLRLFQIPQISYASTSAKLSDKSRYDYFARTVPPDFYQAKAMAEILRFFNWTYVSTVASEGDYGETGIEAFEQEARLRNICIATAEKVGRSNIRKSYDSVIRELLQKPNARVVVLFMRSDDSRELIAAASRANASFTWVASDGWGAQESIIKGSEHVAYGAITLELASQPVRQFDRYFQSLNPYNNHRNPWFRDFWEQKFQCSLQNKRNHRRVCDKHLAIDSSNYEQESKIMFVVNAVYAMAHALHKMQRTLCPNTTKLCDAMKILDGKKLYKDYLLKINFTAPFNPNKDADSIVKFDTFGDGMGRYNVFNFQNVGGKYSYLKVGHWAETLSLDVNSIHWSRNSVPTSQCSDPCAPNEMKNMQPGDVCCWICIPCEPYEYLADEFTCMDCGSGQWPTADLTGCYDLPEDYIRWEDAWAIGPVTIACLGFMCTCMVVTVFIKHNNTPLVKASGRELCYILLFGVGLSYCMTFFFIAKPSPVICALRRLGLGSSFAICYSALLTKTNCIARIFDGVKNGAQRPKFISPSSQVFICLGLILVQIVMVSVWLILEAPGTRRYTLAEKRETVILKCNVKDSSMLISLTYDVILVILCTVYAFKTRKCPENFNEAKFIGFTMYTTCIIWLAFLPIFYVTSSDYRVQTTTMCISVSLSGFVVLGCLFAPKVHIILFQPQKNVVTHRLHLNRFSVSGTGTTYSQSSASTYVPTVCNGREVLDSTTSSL
SNAP-tagged GRM3: residues 23-879 of Q14832
GRM3 VFT (extracellular venus flytrap domain of GRM3): residues 30-500 of Q14832

Assays:
[1] = biological target: T1, recombinant mouse Raptin protein with a His-tag (mouse); test: co-IP; His-Raptin incubated with cell lysates 2 h at room temperature; anti-His antibody on protein A/G magnetic beads, 4 °C overnight; SDS-PAGE and blot; only the target purified
T1 sequence: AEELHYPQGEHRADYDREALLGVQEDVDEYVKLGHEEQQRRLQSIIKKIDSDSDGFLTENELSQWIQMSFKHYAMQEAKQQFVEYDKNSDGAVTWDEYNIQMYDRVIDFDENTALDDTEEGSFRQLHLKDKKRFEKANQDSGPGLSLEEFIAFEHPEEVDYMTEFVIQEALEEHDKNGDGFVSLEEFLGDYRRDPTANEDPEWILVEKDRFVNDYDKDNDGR

[2] = biological target: GRM3 overexpressed in HEK293T cells (Grm3 plasmid) (UniProt Q14832); test: saturation binding assay on cells; different doses of biotin-labeled His-Raptin on HEK293T cells with or without GRM3 or mutant GRM3-VFT overexpression, 30 min at room temperature; nonspecific binding with 50-fold excess unconjugated His-Raptin; streptavidin-HRP, absorbance at 450 nm, normalized to protein content; only the binder purified
SNAP-tagged GRM3 = SNAP-tagged GRM3 (UniProt Q14832); test: FRET or BRET; time-resolved FRET on HEK293 cells with SNAP-tagged GRM3 labelled with SNAP-Lumi4-Tb and SNAP-Green in Tag-Lite buffer; Raptin or glutamate added; acceptor ratio; only the binder purified
[3] = biological target: GRM3 VFT (extracellular venus flytrap domain of GRM3) (UniProt Q14832); test: co-IP; co-immunoprecipitation from cells transfected with human WT RCN2 or the RCN2 variant (HEK293T)

In the case of “GRM3 VFT (extracellular venus flytrap domain of GRM3) (from UniProt Q14832-1 30-500) (domain or fragment)”, the binding [1] is reported as “binds”.

B1: biotin-labeled His-Raptin (ligand)
chain: AEELHYPQGEHRADYDREALLGVQEDVDEYVKLGHEEQQRRLQSIIKKIDSDSDGFLTENELSQWIQMSFKHYAMQEAKQQFVEYDKNSDGAVTWDEYNIQMYDRVIDFDENTALDDTEEGSFRQLHLKDKKRFEKANQDSGPGLSLEEFIAFEHPEEVDYMTEFVIQEALEEHDKNGDGFVSLEEFLGDYRRDPTANEDPEWILVEKDRFVNDYDKDNDGR
modifications: biotin (site not stated)
In the case of B1, the binding [2] is reported as “binds”.

B2: recombinant mouse Raptin protein with a His-tag (ligand)
chain: AEELHYPQGEHRADYDREALLGVQEDVDEYVKLGHEEQQRRLQSIIKKIDSDSDGFLTENELSQWIQMSFKHYAMQEAKQQFVEYDKNSDGAVTWDEYNIQMYDRVIDFDENTALDDTEEGSFRQLHLKDKKRFEKANQDSGPGLSLEEFIAFEHPEEVDYMTEFVIQEALEEHDKNGDGFVSLEEFLGDYRRDPTANEDPEWILVEKDRFVNDYDKDNDGR
For B2, the binding (SNAP-tagged GRM3) was “binds”.

B3: His-tagged RCN2 nonsense variant (p.Arg157Ter, c.469 C > T) (domain or fragment, UniProt Q14257 23-156)
chain: GKAEELHYPLGERRSDYDREALLGVQEDVDEYVKLGHEEQQKRLQAIIKKIDLDSDGFLTESELSSWIQMSFKHYAMQEAKQQFVEYDKNSDDTVTWDEYNIQMYDRVIDFDENTALDDAEEESFRKLHLKDKK
For B3, the binding [3] was “no binding”.
